Measurements as given in PubChem BioAssay AID1487 (National Center for Advancing Translational Sciences (NCATS), 2009).
Some of the results follow. These are further read-outs of the screen, such as a control signal, another cell line or another target. No call is given for them. The list favours compounds with an active or inconclusive main result. Potencies come from curve fits of mixed quality, noted in brackets.

Experiment: qHTS Assay for Modulators of Lamin A Splicing
Details: HeLa LMNA splicing GFP/RFP minigene ratio, 48 h
Method in brief: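 Read-out is the ratio of GFP to DsRed2 object intensity, acquired by 488 nm laser-scanning cytometry on HeLa lamin A-EGFP minigene reporter cells. Compound incubation 48 hrs at 37 °C in Opti-MEM with 2% FBS; DMSO 0.5% final.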

[1] = measured here: GFP splicing reporter channel
[2] = measured here: RFP viability control channel

| SMILES | AC50 [1] | AC50 [2] |
| --- | --- | --- |
| Cc1nn(CC(=O)NCc2cccc3ccccc23)c(=O)c2ccccc12 | 35.5 µM [falling, single point] | 35.5 µM [falling, single point] |
| N#Cc1cccc(NC(=O)C2CCN(S(=O)(=O)c3ccc4[nH]c(=O)ccc4c3)CC2)c1 | 0.224 µM [falling, full curve, poor fit] | 0.316 µM [falling, full curve] |
| CCC(C)(C)n1nnnc1C(c1ccc(C)cc1)N(Cc1ccco1)Cc1cccs1 (centres undefined) | – | 35.5 µM [rising, single point] |
| CCCOC(=O)CSC1=C(C#N)C(c2ccccc2OCC)C(C#N)C(=O)N1 (centres undefined) | – | 3.16 µM [rising, full curve, poor fit] |
| Cc1ccc(SCc2c(-c3ccccc3)nn(C)c2Cl)cc1 | – | 20 µM [rising, single point] |
| C/C(=N\NC(=S)Nc1c(C)cccc1C)c1cc2ccccc2o1 | 0.282 µM [rising, full curve, poor fit] | 5.01 µM [rising, full curve] |
| CCc1ccc(NCc2nc(-c3ccccc3)no2)cc1 | 12.6 µM [rising, single point] | – |
| CCC(=O)N1CCc2cc(S(=O)(=O)CCC(=O)Nc3nc(C)cs3)ccc21 | – | 15.8 µM [rising, single point] |
| CN(C)S(=O)(=O)c1ccc(C(=O)OCC(=O)NCc2ccccc2)cc1 | 0.126 µM [rising, full curve] | – |
| COc1ccc2nc(C)cc(Nc3ccccc3O)c2c1 | 0.0562 µM [falling, full curve, poor fit] | – |
| Cc1ccc(N(CC(O)CON=C2c3ccccc3-c3ccccc32)S(C)(=O)=O)cc1 (centres undefined) | 12.6 µM [rising, partial curve] | 31.6 µM [rising, single point] |
| CCC(=O)C1=C(c2cccc(OC)c2)N(C(=O)CC)n2c(nnc2C2CCCCC2)S1 | 6.31 µM [falling, single point] | 5.62 µM [falling, single point] |
| CC(=O)N[C@@H](CC(=O)O)C(=O)N[C@@H](CCC(=O)O)C(=O)O | 0.447 µM [falling, full curve] | 0.501 µM [falling, full curve] |
| Cc1cc(C(C)(C)CC(C)(C)C)ccc1OCCOCC[N+](C)(C)Cc1ccccc1 | 14.1 µM [falling, partial curve, poor fit] | 14.1 µM [falling, partial curve, poor fit] |
| O=C1NC2(CCCc3ccccc32)C(=O)N1CCOc1ccc(Br)cc1 (centres undefined) | 17.8 µM [rising, partial curve] | 14.1 µM [rising, single point] |
| O=C(Nc1nnc(-c2ccco2)o1)c1cccc(N2C(=O)CCC2=O)c1 | 0.00891 µM [rising, full curve, poor fit] | – |
| CCOC(=O)c1cc(-c2ccccc2)n(CC(=O)Nc2ccc(OC)c(OC)c2)c1C | – | 0.891 µM [rising, partial curve, poor fit] |
| Cc1ccc(C)c2nc(N3CCCC3)c(C#N)cc12 | 10 µM [rising, single point] | – |

| SMILES | AC50 [1] | AC50 [2] |
| --- | --- | --- |
| CC(=O)c1ccc(NC(=O)CSc2nc(-c3cccc(F)c3)nc3c2c(=O)n(C)c(=O)n3C)cc1 | 20 µM [falling, single point] | 35.5 µM [falling, single point] |
| Cc1cc(C)c(NC(=S)NC(=O)c2ccc(-c3ccccc3)cc2)c(C)c1 | – | 14.1 µM [rising, partial curve] |
| Cc1ccc2nc(N(Cc3cccnc3)C(=O)CCS(=O)(=O)c3ccccc3)sc2c1 | – | 35.5 µM [falling, single point] |
| CCc1ccc2oc(C(=O)NCc3ccc(S(N)(=O)=O)cc3)c(C)c2c1 | 0.891 µM [rising, single point] | 0.891 µM [rising, full curve] |
| CCOc1ccc(CCNC(=O)CN2N=C(c3ccccc3)CCC2=O)cc1OCC | 0.0316 µM [falling, full curve, poor fit] | – |
| CCOC(=O)c1cccc(NC(=O)CSc2nnc(COc3ccccc3C)o2)c1 | 1.58 µM [falling, partial curve, poor fit] | – |
| COC(=O)c1c(C)oc2ccc(NS(=O)(=O)c3cc(OC)ccc3OC)cc12 | 10 µM [rising, partial curve, poor fit] | 11.2 µM [rising, partial curve] |
| COC(=O)c1cc(Cl)c(NC(=O)c2ccco2)cc1OC | – | 2.82 µM [falling, partial curve] |
| CC(C)Cc1nc(Nc2ccc(S(=O)(=O)N3CCCC3)cc2)c2nnn(Cc3ccccc3)c2n1 | – | 31.6 µM [rising, single point] |
| COc1ccc(CNC(=O)c2ccc3c(c2)nc2n3CCOC2)c(OC)c1 | 0.562 µM [rising, single point] | – |
| Cc1cc(NC(=O)C2=C(O)c3ccccc3S(=O)(=O)N2C)no1 | – | 0.891 µM [rising, partial curve] |
| COc1ccc(NC2=NCC(Cc3ccc(Br)cc3)S2)cc1 (centres undefined) | 35.5 µM [falling, partial curve, poor fit] | 12.6 µM [falling, partial curve, poor fit] |
| CN1CCCN=C1/C=C\c1cccs1 | 0.251 µM [falling, partial curve, poor fit] | 0.501 µM [falling, single point] |
| CC1=CC2=NC(=O)/C(=C\c3cn(C)c4ccccc34)C(=N)N2O1 | – | 0.501 µM [falling, full curve, poor fit] |
| Cc1ccccc1NC(=O)c1nn(-c2ccc(F)c(F)c2)ccc1=O | 0.0178 µM [rising, full curve, poor fit] | – |
| Cc1ccc(Cn2c(CN3CCC(C(=O)NCCc4ccccc4)CC3)cc3ccccc32)cc1 | 35.5 µM [rising, single point] | – |
| CCNS(=O)(=O)c1ccc(NC(=O)Nc2cccc(C(F)(F)F)c2)cc1 | 10 µM [rising, partial curve, poor fit] | 12.6 µM [rising, single point] |

Looked up above.
AC50 [2], Cc1cc(NC(=O)C2=C(O)c3ccccc3S(=O)(=O)N2C)no1 reads 0.891 µM [rising, partial curve]
AC50 [1], COc1ccc(CNC(=O)c2ccc3c(c2)nc2n3CCOC2)c(OC)c1 reads 0.562 µM [rising, single point]
AC50 [2], Cc1cc(C)c(NC(=S)NC(=O)c2ccc(-c3ccccc3)cc2)c(C)c1 reads 14.1 µM [rising, partial curve]
